Results are given in words; binding and its absence hold for the method and conditions named. Binding seen in cells or lysates may run through a third protein. Binding calls can cover weak binding; strength is not graded here. Sequences can lack the tags named with a protein.

Amino acid sequences for entries named in this document (tags omitted). A change or cut given only in a name is not applied to a line headed by its entry.
UniProt Q14653: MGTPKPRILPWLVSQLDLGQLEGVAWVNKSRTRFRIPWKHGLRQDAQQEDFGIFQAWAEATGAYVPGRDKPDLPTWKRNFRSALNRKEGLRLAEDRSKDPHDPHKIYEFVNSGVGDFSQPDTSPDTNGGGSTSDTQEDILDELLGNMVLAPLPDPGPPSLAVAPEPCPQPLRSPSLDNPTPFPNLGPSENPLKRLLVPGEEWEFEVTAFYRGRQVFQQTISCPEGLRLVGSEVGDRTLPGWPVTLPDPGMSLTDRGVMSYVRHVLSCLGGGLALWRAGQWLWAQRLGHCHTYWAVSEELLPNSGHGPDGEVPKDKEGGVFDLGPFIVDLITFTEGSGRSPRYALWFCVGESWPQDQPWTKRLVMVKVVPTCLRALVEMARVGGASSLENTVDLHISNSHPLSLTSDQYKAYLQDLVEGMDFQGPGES

Common to all, as to experiment: co-IP; 293T cells co-transfected with HA-tagged SHIP1 constructs and Flag-tagged partners; IP using anti-Flag beads and immunoblot with anti-HA (Fig. 3C, 5A; also Fig. 3H, 3I, S3A, S5A); Flag-IRF3 with HA-SHIP1 also in NDP52 KO 293T cells, where the interaction was reduced (Fig. 5J)
(In general: Immunoblotting shows a protein as a band on a membrane.)

In assay [1] the target is T1, Flag-tagged NDP52 (CALCOCO2) (not stated (human or mouse cDNA cloned)) (UniProt Q13137).
T1 sequence: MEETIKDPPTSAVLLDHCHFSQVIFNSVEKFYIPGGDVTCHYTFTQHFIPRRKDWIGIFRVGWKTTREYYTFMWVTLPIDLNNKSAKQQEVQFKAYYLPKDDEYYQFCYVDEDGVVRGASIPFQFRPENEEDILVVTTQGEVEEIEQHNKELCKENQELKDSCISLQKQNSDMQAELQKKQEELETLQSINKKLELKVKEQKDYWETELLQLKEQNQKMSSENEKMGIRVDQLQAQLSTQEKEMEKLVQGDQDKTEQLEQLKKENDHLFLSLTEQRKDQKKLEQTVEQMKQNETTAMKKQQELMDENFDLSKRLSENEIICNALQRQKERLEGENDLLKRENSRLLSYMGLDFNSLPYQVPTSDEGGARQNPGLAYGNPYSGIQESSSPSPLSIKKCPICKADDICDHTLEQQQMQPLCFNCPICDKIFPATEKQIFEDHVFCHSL

The target in assay [2] is Flag-IRF3 ΔC (DBD+PRO+IAD).
The target of assay [3] is Flag-IRF3 ΔDBD (PRO+IAD+RD).
The target of assay [4] is IRF3-5D (a constitutively active mutant of IRF3) (UniProt Q14653).

As to “HA-SHIP1 phosphatase domain (domain or fragment)”, the binding result in assay [1] is on record as “binds”.

B1: HA-tagged SHIP1 (Src homology 2 containing inositol phosphatase 1), full length (protein, UniProt Q92835 1-1189)
chain: MVPCWNHGNITRSKAEELLSRTGKDGSFLVRASESISRAYALCVLYRNCVYTYRILPNEDDKFTVQASEGVSMRFFTKLDQLIEFYKKENMGLVTHLQYPVPLEEEDTGDDPEEDTVESVVSPPELPPRNIPLTASSCEAKEVPFSNENPRATETSRPSLSETLFQRLQSMDTSGLPEEHLKAIQDYLSTQLAQDSEFVKTGSSSLPHLKKLTTLLCKELYGEVIRTLPSLESLQRLFDQQLSPGLRPRPQVPGEANPINMVSKLSQLTSLLSSIEDKVKALLHEGPESPHRPSLIPPVTFEVKAESLGIPQKMQLKVDVESGKLIIKKSKDGSEDKFYSHKKILQLIKSQKFLNKLVILVETEKEKILRKEYVFADSKKREGFCQLLQQMKNKHSEQPEPDMITIFIGTWNMGNAPPPKKITSWFLSKGQGKTRDDSADYIPHDIYVIGTQEDPLSEKEWLEILKHSLQEITSVTFKTVAIHTLWNIRIVVLAKPEHENRISHICTDNVKTGIANTLGNKGAVGVSFMFNGTSLGFVNSHLTSGSEKKLRRNQNYMNILRFLALGDKKLSPFNITHRFTHLFWFGDLNYRVDLPTWEAETIIQKIKQQQYADLLSHDQLLTERREQKVFLHFEEEEITFAPTYRFERLTRDKYAYTKQKATGMKYNLPSWCDRVLWKSYPLVHVVCQSYGSTSDIMTSDHSPVFATFEAGVTSQFVSKNGPGTVDSQGQIEFLRCYATLKTKSQTKFYLEFHSSCLESFVKSQEGENEEGSEGELVVKFGETLPKLKPIISDPEYLLDQHILISIKSSDSDESYGEGCIALRLEATETQLPIYTPLTHHGELTGHFQGEIKLQTSQGKTREKLYDFVKTERDESSGPKTLKSLTSHDPMKQWEVTSRAPPCSGSSITEIINPNYMGVGPFGPPMPLHVKQTLSPDQQPTAWSYDQPPKDSPLGPCRGESPPTPPGQPPISPKKFLPSTANRGLPPRTQESRPSDLGKNAGDTLPQEDLPLTKPEMFENPLYGSLSSFPKPAPRKDQESPKMPRKEPPPCPEPGILSPSIVLTKAQEADRGEGPGKQVPAPRLRSFTCSSSAEGRAAGGDKSQGKPKTPVSSQAPVPAKRPIKPSRSEINQQTPPTPTPRPPLPVKSPAVLHLQHSKGRDYRDNTELPHHGKHRPEEGPPGPLGRTAMQ
As to B1, the binding entry in assay [2], in assay [3] and in assay [4] was “binds” in each case.
